US8632825B2, “Anti-tumoural effects of cannabinoid combinations” (GW Pharma Limited, priority 2008, dated 2014)
Some of these results come from one statement about several compounds together.

Tested on: U87MG
Experiment: Effect of cannabinoid concentration on cell viability, U87MG
Type: cell-based, human
Details: 0.1 ug/ml and 0.25 ug/ml, FIG. 2a

| Compound | cell viability |
| --- | --- |
| C=C(C)[C@@H]1CCC(C)=C[C@H]1c1c(O)cc(CCCCC)cc1O [CBD, cannabidiol] | greater than 90% |
| CCCCCc1cc(O)c2c(c1)OC(C)(C)[C@@H]1CCC(C)=C[C@@H]21 [THC, tetrahydrocannabinol] | greater than 90% |
